In all, about 300,000 compounds went through this assay and about 5,400 (1.8%) were called active. The inconclusive results got no clear call from the source; some entries with a clear call stand among them for comparison. Calls come from the whole dose curve; tested in HEK293 cells. Potencies beside an inconclusive call are fits to weak or partial responses and may not hold up.
Assay: qHTS for inhibitors of binding or entry into cells for Marburg Virus
Settings: Marburg virus pseudotyped entry inhibition, cell reporter; series mostly up to 37.8 µM
With CCOC(=O)c1[nH]c(C)c(CN(Cc2ccco2)C(=O)C(F)(F)F)c1C the Potency was inconclusive: 12.6 µM [inhibitor, single point].
With Cc1ccc(-n2c(SCC(=O)O)nc3sc4c(c3c2=O)CCCC4)cc1 the Potency was “inactive”.
For O=C(NC1CCSc2ccccc21)c1cccc(Cl)c1 (stereo unspecified), the Potency was “inactive”.
For COc1cc2c(cc1OC)CN(C1CCC(C(C)(C)C)CC1)CC2 (stereo unspecified), the Potency was inconclusive: 15.8 µM [inhibitor, partial curve, poor fit].
With COc1cccc(C(=O)NC23CC4CC(CC(C4)C2)C3)c1 the Potency was inconclusive: 8.91 µM [activator, partial curve, poor fit].
In the case of O=NN1CCN(c2ccncc2S(=O)(=O)N2CCCCC2)CC1, the Potency was “inactive”.
For O=C(Nc1ccnn1C1CCN(Cc2cccc(OCCO)c2)CC1)c1cccc(F)c1, the Potency was “inactive”.
In the case of Cn1c2c(c(=O)n(C)c1=O)[C@](NC(=O)c1cccs1)(C(F)(F)F)C(=O)N2, the Potency was “inactive”.
For CCOc1ccc(NC(=O)CN(c2ccc(Cl)cc2C)S(=O)(=O)c2ccccc2)cc1, the Potency was inconclusive: 20 µM [inhibitor, partial curve, poor fit].
In the case of Cc1ccc2oc(C(=O)N(C)Cc3cnccn3)c(C)c2c1, the Potency was “inactive”.
In the case of O=C(N/N=C/c1ccc(O)c(O)c1)N/N=C/c1ccc(O)c(O)c1, the Potency was inconclusive: 10 µM [inhibitor, partial curve, poor fit].
In the case of O=C(/C=C/c1ccc(-c2ccccc2[N+](=O)[O-])o1)c1ccccc1, the Potency was inconclusive: 1.12 µM [activator, partial curve, poor fit].
In the case of CCCCn1c(=N)n(CC(O)COc2ccc(C)cc2)c2ccccc21 (stereo unspecified), the Potency was inconclusive: 23.1 µM [inhibitor, partial curve, poor fit].
With NCCNc1ccc([N+](=O)[O-])c(NC2CC2)c1 the Potency was inconclusive: 15.8 µM [inhibitor, single point].
For Clc1ccc(-c2nc(NCCCN3CCOCC3)c3ccccc3n2)cc1, the Potency was inconclusive: 17.8 µM [inhibitor, partial curve, poor fit].
For O=C(Nc1ccc(OCc2cc(=O)n3c4c(sc3n2)CCCC4)cc1)c1ccccc1, the Potency was “inactive”.
With Cc1cc(=O)oc2c(C)c(OCC(=O)NC3CCN(Cc4ccccc4)CC3)ccc12 the Potency was inconclusive: 20 µM [inhibitor, partial curve, poor fit].
With C=CCNC(=S)Nc1cccc(NC(=S)NCC=C)c1 the Potency was “inactive”.
For CCN1CCN(C(=O)NC2CC(=O)N(c3ccc(OC)cc3)C2)CC1 (stereo unspecified), the Potency was inconclusive: 3.16 µM [inhibitor, single point].
For COC(=O)c1cnc(SCc2ccc(Cl)cc2)n1C, the Potency was “inactive”.
With Cc1occc1C(=O)N/N=C/c1cnn(C)c1C the Potency was “inactive”.
For CCSC1=N/C(=C/c2ccsc2)C(=O)N1c1ccccc1, the Potency was “inactive”.
In the case of CC(C)(C)NC(=O)[C@H]1CC[C@H]2[C@@H]3CC[C@H]4NC(=O)C=C[C@]4(C)[C@H]3CC[C@]12C, the Potency was inconclusive: 6.31 µM [inhibitor, single point].
In the case of Cc1ccc(NC(=S)N2CCC(c3nc4ccccc4s3)CC2)cc1C, the Potency was “inactive”.
For CCN(CC)S(=O)(=O)c1ccc2oc(SCc3ccc(F)cc3)nc2c1, the Potency was inconclusive: 12.6 µM [inhibitor, partial curve, poor fit].
In the case of COc1ccc(NC(=O)C(=O)NCC(c2ccco2)N2CCc3ccccc3C2)cc1OC (stereo unspecified), the Potency was inconclusive: 5.62 µM [activator, single point].
With Fc1ccc(N2CCN(Cc3ccccn3)CC2)cc1 the Potency was “inactive”.
For Cc1ccc(CSc2nnc(-c3ccccn3)n2C)cc1, the Potency was “inactive”.
For CC(=O)OC(C(=O)NC1CCCCC1)c1ccccc1F (stereo unspecified), the Potency was inconclusive: 1.12 µM [inhibitor, full curve, poor fit].
For Cn1c(=O)c2c(nc(CN3CCN(Cc4ccccc4)CC3)n2Cc2ccccc2)n(C)c1=O, the Potency was “inactive”.
For CC1CCCN(c2nc3ccsc3c(=O)s2)C1 (stereo unspecified), the Potency was “inactive”.
For CCN(CC(=O)NCCc1ccc(S(N)(=O)=O)cc1)Cc1nc2cc(OC)c(OC)cc2c(=O)[nH]1, the Potency was inconclusive: 3.98 µM [activator, single point].
With O=C(CCl)NCCN1C(=O)S/C(=C\c2cccnc2)C1=O the Potency was inconclusive: 10 µM [inhibitor, partial curve, poor fit].
For Cn1cc(C(=O)N2CCN(c3cccc(C(F)(F)F)c3)CC2)c2c3ccccc3n(C)c2c1=O, the Potency was inconclusive: 35.5 µM [inhibitor, single point].
For Clc1ccc(CSc2ncn[nH]2)cc1, the Potency was “inactive”.
In the case of CCNC(=S)N1CCN(c2nc(CC)nc3sc4c(c23)CCCC4)CC1, the Potency was inconclusive: 17.8 µM [inhibitor, partial curve, poor fit].
With CC(C)C[C@H]1C(=O)N2CCCC2[C@]2(O)O[C@](NC(=O)[C@@H]3C=C4c5cccc6[nH]cc(c56)CC4N(C)C3)(C(C)C)C(=O)N12 (stereo partly specified) the Potency was “inactive”.
With Cc1ccc(S(=O)(=O)N2CCC(C(=O)N[C@@H](C)C(=O)NCCc3ccccc3)CC2)cc1 the Potency was inconclusive: 5.8 µM [inhibitor, partial curve, poor fit].
For Cc1nn(C(C)(C)C)c(OC(=O)C(C)(C)C)c1Sc1ccccc1, the Potency was “inactive”.
With Clc1ccc(OCc2nnc(SCc3nc4ccccc4[nH]3)n2Cc2ccco2)cc1 the Potency was inconclusive: 29.1 µM [inhibitor, single point].
For CC(C)(C)c1ccc(C(=O)Nc2ccc(F)cc2)s1, the Potency was inconclusive: 0.562 µM [activator, full curve, poor fit].
For Cc1noc(C)c1COc1ccc(C(=O)Nc2ccccc2)cc1, the Potency was inconclusive: 12.6 µM [inhibitor, single point].
For NC(=O)c1cc(-c2ccccc2)sc1NC(=O)CN1CCCCC1, the Potency was active: 6.31 µM.
With C=CCn1c(Cc2ccccc2)nc2c(cnn2-c2ccccc2)c1=O the Potency was inconclusive: 22.4 µM [inhibitor, partial curve, poor fit].
With COc1cc(-c2nnc(SCc3c(F)cccc3Cl)o2)cc(OC)c1OC the Potency was “inactive”.
For CN(C)S(=O)(=O)c1ccc(C(=O)NNc2nc(-c3ccccc3)c3cc(Br)ccc3n2)cc1, the Potency was inconclusive: 35.5 µM [inhibitor, single point].
For COc1ccc(/C=N/NC(=O)c2cccnc2)cc1COc1ccc(NC(C)=O)cc1, the Potency was inconclusive: 0.794 µM [inhibitor, full curve, poor fit].
In the case of O=c1c2c(-c3cccs3)csc2ncn1-c1ccccc1, the Potency was “inactive”.
With CCCCn1nc(CC(=O)O)c2ccccc2c1=O the Potency was “inactive”.
For Nc1nonc1-n1nnc(C(=O)N/N=C/c2ccncc2)c1-c1ccccc1, the Potency was inconclusive: 35.5 µM [activator, single point].
For Nc1ccc(S(=O)(=O)Nc2nccc(/C=C/c3ccc(Cl)cc3Cl)n2)cc1, the Potency was inconclusive: 2.06 µM [inhibitor, partial curve, poor fit].
For c1ccc(Oc2cnc3ccccc3n2)cc1, the Potency was “inactive”.
For Cc1cc(NC(=O)C2CC(=O)N(c3cccc(Cl)c3)C2)no1 (stereo unspecified), the Potency was inconclusive: 35.5 µM [inhibitor, single point].
With O=C1C2C(c3ccccc3)C=CC(c3ccccc3)C2C(=O)N1c1cccnc1 (stereo unspecified) the Potency was inconclusive: 6.31 µM [inhibitor, single point].
With CCCCC(CC)CNC(=O)CN1C(=O)NC2(CCc3ccccc32)C1=O (stereo unspecified) the Potency was inconclusive: 10 µM [inhibitor, single point].
With O=C(Nc1ccc(Cl)c(-c2nc3cc(Cl)ccc3o2)c1)c1cc([N+](=O)[O-])ccc1N1CCOCC1 the Potency was “inactive”.
For COc1ccc(NC(=O)CSc2ncnc3c2nnn3-c2ccc(F)cc2)c(OC)c1, the Potency was inconclusive: 22.4 µM [inhibitor, single point].
For Cc1cccc(C(=O)Nc2cc(=O)n(C)c(=O)n2C)c1, the Potency was “inactive”.
For CCOc1ccccc1C(=O)Nc1nc2c(s1)CC(C)CC2 (stereo unspecified), the Potency was inconclusive: 7.08 µM [activator, full curve, poor fit].
With COc1ccc(CC(=O)NCC(=O)N/N=C/c2cc(Br)ccc2OC)cc1 the Potency was inconclusive: 10 µM [inhibitor, partial curve, poor fit].
For CCS(=O)(=O)N1Cc2ccccc2CC1C(=O)N(C)Cc1ccc(OC)c(F)c1 (stereo unspecified), the Potency was inconclusive: 6.31 µM [activator, partial curve, poor fit].
In the case of COc1cc2c(cc1NC(=O)c1cccc(S(=O)(=O)N(C)C)c1)oc1ccccc12, the Potency was inconclusive: 0.92 µM [activator, partial curve].
With O=S(=O)(c1ccc(Cl)cc1)N1CCCCC1c1cccnc1 (stereo unspecified) the Potency was inconclusive: 35.5 µM [activator, single point].
For Nc1c(C(=O)Nc2ccccc2)nnn1Cc1ccc(F)cc1Cl, the Potency was inconclusive: 5.62 µM [activator, single point].
For CCN1CCN(C(=O)c2cc3cc4cc(OC)ccc4nc3s2)CC1, the Potency was inconclusive: 7.94 µM [activator, partial curve, poor fit].
With CCCOc1ccc(C(=O)c2nc3c(n2O)CCCCC3)cc1 the Potency was “inactive”.
With Cc1c(C(=O)Nc2c(N)nc(SCC(=O)NCC3CCCO3)[nH]c2=O)cccc1[N+](=O)[O-] (stereo unspecified) the Potency was “inactive”.
With CCOC(=O)C1CCCN(Cc2nc(N)nc(Nc3ccc(Cl)cc3)n2)C1 (stereo unspecified) the Potency was active: 7.08 µM.
In the case of COc1ccc(C(=O)Nn2c(CCC(=O)O)ccc2-c2ccc(C)cc2)cc1OC, the Potency was “inactive”.
For C/C(CC(=O)Nc1cccc(Cl)c1Cl)=N\NC(=O)c1ccccc1N, the Potency was inconclusive: 1 µM [activator, partial curve, poor fit].
With CCOC(=O)c1c(C)nc2c(c1-c1ccccc1)C(=O)c1ccccc1-2 the Potency was inconclusive: 3.66 µM [inhibitor, partial curve, poor fit].

From PubChem BioAssay AID540276 (National Center for Advancing Translational Sciences (NCATS), 2011)
Potency is the fitted concentration of half-maximal effect.
